# The other results are listed elsewhere or left out.
# B1: NK2 (Sus scrofa) (peptide)
# chain: KILRGVCKKIMRTFLRRISKDILTGKK
# Assays:
# Experiment in all cases: glycan array binding signal (z-score within array); higher = stronger binding
# Details in all cases: glycan notation: IUPAC condensed, linker removed
# [1] = target: Gal(b1-4)GlcNAc(b1-3)Gal(b1-3)GalNAc
# How it was run: (§1)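 Columns mapping to the same glycan were averaged after glycan names were converted to IUPAC-condensed notation. The data come from 3228 arrays in the Consortium for Functional Glycomics database, limited to those with an available protein sequence. Binding is reported as a within-array Z-score averaged across arrays of one protein sequence and across linkers.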
# [2] = target: Gal(b1-4)GlcNAc(b1-3)Gal(b1-3)GlcNAc
# How it was run: as §1
# [3] = target: Gal(b1-4)GlcNAc(b1-3)Gal(b1-4)Glc
# How it was run: as §1
# [4] = target: Gal(b1-4)GlcNAc(b1-3)Gal(b1-4)GlcNAc
# How it was run: as §1
# [5] = target: Gal(b1-4)GlcNAc(b1-3)Gal(b1-4)GlcNAc(b1-2)Man(a1-3)[Gal(b1-4)GlcNAc(b1-3)Gal(b1-4)GlcNAc(b1-2)Man(a1-6)]Man(b1-4)GlcNAc(b1-4)GlcNAc
# How it was run: as §1
# [6] = target: Gal(b1-4)GlcNAc(b1-3)Gal(b1-4)GlcNAc(b1-2)Man(a1-3)[Gal(b1-4)GlcNAc(b1-3)Gal(b1-4)GlcNAc(b1-2)Man(a1-6)]Man(b1-4)GlcNAc(b1-4)[Fuc(a1-6)]GlcNAc
# How it was run: as §1
# [7] = target: Gal(b1-4)GlcNAc(b1-3)Gal(b1-4)GlcNAc(b1-2)[Gal(b1-4)GlcNAc(b1-3)Gal(b1-4)GlcNAc(b1-6)]Man(a1-6)[Gal(b1-4)GlcNAc(b1-3)Gal(b1-4)GlcNAc(b1-2)Man(a1-3)]Man(b1-4)GlcNAc(b1-4)GlcNAc
# How it was run: as §1
# [8] = target: Gal(b1-4)GlcNAc(b1-3)Gal(b1-4)GlcNAc(b1-2)[Gal(b1-4)GlcNAc(b1-3)Gal(b1-4)GlcNAc(b1-6)]Man(a1-6)[Gal(b1-4)GlcNAc(b1-3)Gal(b1-4)GlcNAc(b1-2)Man(a1-3)]Man(b1-4)GlcNAc(b1-4)[Fuc(a1-6)]GlcNAc
# How it was run: as §1
# [9] = target: Gal(b1-4)GlcNAc(b1-3)Gal(b1-4)GlcNAc(b1-3)Gal(b1-4)GlcNAc
# How it was run: as §1
# [10] = target: Gal(b1-4)GlcNAc(b1-3)Gal(b1-4)GlcNAc(b1-3)Gal(b1-4)GlcNAc(b1-2)Man(a1-3)[Gal(b1-4)GlcNAc(b1-3)Gal(b1-4)GlcNAc(b1-3)Gal(b1-4)GlcNAc(b1-2)Man(a1-6)]Man(b1-4)GlcNAc(b1-4)GlcNAc
# How it was run: as §1
# [11] = target: Gal(b1-4)GlcNAc(b1-3)Gal(b1-4)GlcNAc(b1-3)Gal(b1-4)GlcNAc(b1-2)Man(a1-3)[Gal(b1-4)GlcNAc(b1-3)Gal(b1-4)GlcNAc(b1-3)Gal(b1-4)GlcNAc(b1-2)Man(a1-6)]Man(b1-4)GlcNAc(b1-4)[Fuc(a1-6)]GlcNAc
# How it was run: as §1
# [12] = target: Gal(b1-4)GlcNAc(b1-3)Gal(b1-4)GlcNAc(b1-3)Gal(b1-4)GlcNAc(b1-2)[Gal(b1-4)GlcNAc(b1-3)Gal(b1-4)GlcNAc(b1-3)Gal(b1-4)GlcNAc(b1-6)]Man(a1-6)[Gal(b1-4)GlcNAc(b1-3)Gal(b1-4)GlcNAc(b1-3)Gal(b1-4)GlcNAc(b1-2)Man(a1-3)]Man(b1-4)GlcNAc(b1-4)[Fuc(a1-6)]GlcNAc
# How it was run: as §1
# [13] = target: Gal(b1-4)GlcNAc(b1-3)Gal(b1-4)GlcNAc(b1-3)Gal(b1-4)GlcNAc(b1-3)Gal(b1-4)GlcNAc(b1-2)Man(a1-3)[Gal(b1-4)GlcNAc(b1-3)Gal(b1-4)GlcNAc(b1-3)Gal(b1-4)GlcNAc(b1-3)Gal(b1-4)GlcNAc(b1-2)Man(a1-6)]Man(b1-4)GlcNAc(b1-4)GlcNAc
# How it was run: as §1
# [14] = target: Gal(b1-4)GlcNAc(b1-3)Gal(b1-4)GlcNAc(b1-3)Gal(b1-4)GlcNAc(b1-3)Gal(b1-4)GlcNAc(b1-2)Man(a1-3)[Gal(b1-4)GlcNAc(b1-3)Gal(b1-4)GlcNAc(b1-3)Gal(b1-4)GlcNAc(b1-3)Gal(b1-4)GlcNAc(b1-2)Man(a1-6)]Man(b1-4)GlcNAc(b1-4)[Fuc(a1-6)]GlcNAc
# How it was run: as §1
# [15] = target: Gal(b1-4)GlcNAc(b1-3)Gal(b1-4)GlcNAc(b1-3)Gal(b1-4)GlcNAc(b1-3)Gal(b1-4)GlcNAc(b1-2)[Gal(b1-4)GlcNAc(b1-3)Gal(b1-4)GlcNAc(b1-3)Gal(b1-4)GlcNAc(b1-3)Gal(b1-4)GlcNAc(b1-6)]Man(a1-6)[Gal(b1-4)GlcNAc(b1-3)Gal(b1-4)GlcNAc(b1-3)Gal(b1-4)GlcNAc(b1-3)Gal(b1-4)GlcNAc(b1-2)Man(a1-3)]Man(b1-4)GlcNAc(b1-4)[Fuc(a1-6)]GlcNAc
# How it was run: as §1
# [16] = target: Gal(b1-4)GlcNAc(b1-3)Gal(b1-4)GlcNAc(b1-3)Gal(b1-4)GlcNAc(b1-3)Gal(b1-4)GlcNAc(b1-3)Gal(b1-4)GlcNAc(b1-2)Man(a1-3)[Gal(b1-4)GlcNAc(b1-3)Gal(b1-4)GlcNAc(b1-3)Gal(b1-4)GlcNAc(b1-3)Gal(b1-4)GlcNAc(b1-3)Gal(b1-4)GlcNAc(b1-2)Man(a1-6)]Man(b1-4)GlcNAc(b1-4)GlcNAc
# How it was run: as §1
# [17] = target: Gal(b1-4)GlcNAc(b1-3)Gal(b1-4)GlcNAc(b1-3)Gal(b1-4)GlcNAc(b1-3)Gal(b1-4)GlcNAc(b1-3)Gal(b1-4)GlcNAc(b1-2)Man(a1-3)[Gal(b1-4)GlcNAc(b1-3)Gal(b1-4)GlcNAc(b1-3)Gal(b1-4)GlcNAc(b1-3)Gal(b1-4)GlcNAc(b1-3)Gal(b1-4)GlcNAc(b1-2)Man(a1-6)]Man(b1-4)GlcNAc(b1-4)[Fuc(a1-6)]GlcNAc
# How it was run: as §1
# [18] = target: Gal(b1-4)GlcNAc(b1-3)Gal(b1-4)GlcNAc(b1-3)Gal(b1-4)GlcNAc(b1-3)Gal(b1-4)GlcNAc(b1-3)Gal(b1-4)GlcNAc(b1-2)[Gal(b1-4)GlcNAc(b1-3)Gal(b1-4)GlcNAc(b1-3)Gal(b1-4)GlcNAc(b1-3)Gal(b1-4)GlcNAc(b1-3)Gal(b1-4)GlcNAc(b1-6)]Man(a1-6)[Gal(b1-4)GlcNAc(b1-3)Gal(b1-4)GlcNAc(b1-3)Gal(b1-4)GlcNAc(b1-3)Gal(b1-4)GlcNAc(b1-3)Gal(b1-4)GlcNAc(b1-2)Man(a1-3)]Man(b1-4)GlcNAc(b1-4)[Fuc(a1-6)]GlcNAc
# How it was run: as §1
# [19] = target: Gal(b1-4)GlcNAc(b1-3)Gal(b1-4)GlcNAc(b1-3)Gal(b1-4)GlcNAc(b1-3)Gal(b1-4)GlcNAc(b1-3)Gal(b1-4)GlcNAc(b1-3)Gal(b1-4)GlcNAc(b1-2)Man(a1-3)[Gal(b1-4)GlcNAc(b1-3)Gal(b1-4)GlcNAc(b1-3)Gal(b1-4)GlcNAc(b1-3)Gal(b1-4)GlcNAc(b1-3)Gal(b1-4)GlcNAc(b1-3)Gal(b1-4)GlcNAc(b1-2)Man(a1-6)]Man(b1-4)GlcNAc(b1-4)GlcNAc
# How it was run: as §1
# [20] = target: Gal(b1-4)GlcNAc(b1-3)Gal(b1-4)GlcNAc(b1-3)GalNAc
# How it was run: as §1
# [21] = target: Gal(b1-4)GlcNAc(b1-3)Gal(b1-4)GlcNAc(b1-3)[Gal(b1-4)GlcNAc(b1-3)Gal(b1-4)GlcNAc(b1-6)]GalNAc
# How it was run: as §1
# [22] = target: Gal(b1-4)GlcNAc(b1-3)Gal(b1-4)GlcNAc(b1-6)[Gal(b1-3)]GalNAc
# How it was run: as §1
# [23] = target: Gal(b1-4)GlcNAc(b1-3)Gal(b1-4)[Fuc(a1-3)GlcNAc(b1-6)]Gal(b1-4)Glc
# How it was run: as §1
# [24] = target: Gal(b1-4)GlcNAc(b1-3)Gal(b1-4)[Fuc(a1-3)]GlcNAc(b1-3)Gal(b1-4)[Fuc(a1-3)]GlcNAc
# How it was run: as §1
# [25] = target: Gal(b1-4)GlcNAc(b1-3)GalNAc
# How it was run: as §1
# [26] = target: Gal(b1-4)GlcNAc(b1-3)[Fuc(a1-3)GlcNAc(b1-6)]Gal(b1-4)Glc
# How it was run: as §1
binder,measurement,setting,value
B1,glycan array binding signal (z-score),[1],1.43
same,glycan array binding signal (z-score),[2],-0.996
same,glycan array binding signal (z-score),[3],-0.3
same,glycan array binding signal (z-score),[4],-0.495
same,glycan array binding signal (z-score),[5],-0.133
same,glycan array binding signal (z-score),[6],1.38
same,glycan array binding signal (z-score),[7],-0.505
same,glycan array binding signal (z-score),[8],-0.522
same,glycan array binding signal (z-score),[9],-0.905
same,glycan array binding signal (z-score),[10],-0.037
same,glycan array binding signal (z-score),[11],0.462
same,glycan array binding signal (z-score),[12],-1
same,glycan array binding signal (z-score),[13],-0.393
same,glycan array binding signal (z-score),[14],0.163
same,glycan array binding signal (z-score),[15],-1.12
same,glycan array binding signal (z-score),[16],-0.345
same,glycan array binding signal (z-score),[17],0.626
same,glycan array binding signal (z-score),[18],0.512
same,glycan array binding signal (z-score),[19],-1.28
same,glycan array binding signal (z-score),[20],1.54
same,glycan array binding signal (z-score),[21],0.23
same,glycan array binding signal (z-score),[22],2.04
same,glycan array binding signal (z-score),[23],-0.546
same,glycan array binding signal (z-score),[24],-0.231
same,glycan array binding signal (z-score),[25],-0.217
same,glycan array binding signal (z-score),[26],0.294

# Part of the list above, with tabs.
binder	measurement	setting	value
B1	glycan array binding signal (z-score)	[13]	-0.393
same	glycan array binding signal (z-score)	[19]	-1.28

# Reference: the supplement of paper PMC8728848
